In the supplement of paper PMC10727501:
Some of the results follow. This data set is noisy: repeats of one test often differ as much as different tests do.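 Free-swimming zebrafish larvae were assessed for O-bend response probability to dark flashes (naive: first five; training: remaining flashes across four 60-flash blocks; test: later 60-flash block) and for OMR turning toward alternating leftward/rightward LED motion. Six treated larvae were compared against sixty 0.1% DMSO controls; hits required |SSMD|≥2.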

System: Danio rerio larvae (5 dpf, TLF)
Experiment: Prob-Test (SSMD vs DMSO vehicle); higher = higher than vehicle (e.g. higher dark-flash O-bend response probability, or better optomotor performance)
Conditions: 10 µM; pre-incubation: 30-90 min

First: COc1cc(F)c(C(C)C)cc1-c1ccc(C(F)(F)F)cc1CN1C(=O)O[C@H](c2cc(C(F)(F)F)cc(C(F)(F)F)c2)[C@H]1C [Anacetrapib (MK-0859)]
Second: CCN[C@H]1CN(CCCOC)S(=O)(=O)c2sc(S(N)(=O)=O)cc21 [Brinzolamide]
The Prob-Test of the first is higher: -0.0764 for the first, -0.481 for the second.

Compared with `C=C1CC[C@H](O)C/C1=C\C=C1/CCC[C@@]2(C)[C@H]1CC[C@H]2[C@H](C)CCCC(C)(C)O` [Calcifediol], `CC(C)(C)NC[C@H](O)COc1nsnc1N1CCOCC1.O=C(O)/C=C/C(=O)O` [Timolol Maleate] is higher in Prob-Test: -1.6 for the first, 0.316 for the second.

`O=C(c1cncc(Br)c1)N1CCC(N2CCCC2)CC1` showed a Prob-Test of -0.121.
